In PubChem BioAssay AID651550 (National Center for Advancing Translational Sciences (NCATS), 2012):
Hit rate of the full screen: of about 360,000 compounds, about 1,100 (0.31%) were called active. Inconclusive means that the source gave no clear call. Such entries were picked first, then a sample of the others. No stated cut-off is given here; in the data, active means activity change below about -80%; inconclusive means mostly about -51% to -80%; inactive means weaker than that.

biological target: RAC-alpha serine/threonine-protein kinase (Homo sapiens) (UniProt P31749); assay: HTS Assay for Inhibitors of Akt Phophorylation: Primary Screen; conditions: Neuro2A IGF-stimulated pAkt S473 HTRF, 20 min; at 50 µM, active compounds read low
Procedure, shortened: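 Neuro2A cells in DMEM with 0.5% FBS, overnight at 37 deg C, given compound at single 50 µM final, then IGF (6 nM final) for 20 min at 37 deg C. Lysed; phospho-Akt Ser473 by HTRF after 24 h, 665/615 ratio.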
On the % scale 0 is the no-effect control and ±100 the full control effect.

| SMILES | activity change |
| --- | --- |
| O=C(N/N=C\c1ccccn1)c1ccccc1O | inactive |
| COCCN(C(=O)COc1ccc(Cl)cc1)c1nnc(-c2cccnc2)s1 | inconclusive: -52.8% |
| Cc1ccc(CN2CCN(CC3CC4C=CC3C4)CC2)cc1 (stereo not given) | inconclusive: -78.3% |
| COC(=O)c1sccc1NC(=O)c1ccccc1C(=O)O | inactive |
| Cc1ccccc1S(=O)(=O)Cc1ccc(C(=O)N2CCN(c3cccc(C)c3C)CC2)o1 | active: -111% |
| CS(=O)(=O)Nc1ccc(S(=O)(=O)Nc2nccs2)cc1 | inconclusive: -64.7% |
| N#C/C(=C(/O)COC(=O)CCCNC(=O)c1ccc(Cl)cc1)c1nc2ccccc2[nH]1 | active: -102% |
| N#Cc1cc2ccccc2nc1SCc1cccnc1 | inconclusive: -70.2% |
| Cc1cc(/C=C(\C#N)C(=O)NCCc2c[nH]c3ccccc23)c(C)n1C | inactive |
| CCN(CC)S(=O)(=O)c1ccc(-c2nnc(SCC(=O)N3c4ccccc4CC3C)o2)cc1 (stereo not given) | inconclusive: -77.3% |
| CC(C)COc1ccc(-c2nnc(-c3ccco3)o2)cc1 | inconclusive: -63.3% |
| CCc1cc2cc(C(=O)Nc3ccc(C)cc3)sc2s1 | inconclusive: -51.2% |
| Cc1c(C(=O)n2cnc3ccccc32)cccc1[N+](=O)[O-] | inactive |
| CCOC(=O)N1CCC(NC(=O)C2CCN(c3nc(-c4ccc(OC)cc4)no3)CC2)CC1 | inconclusive: -66% |
| O=C1c2ccccc2NC(c2cnc3ccccc3n2)N1O (stereo not given) | inconclusive: -61.2% |
| COc1cccc(C(=O)O/N=C(\N)c2ccncc2)c1 | inconclusive: -66.2% |
| OC(COc1ccc2cc(Br)ccc2c1)CN1CCCC1 (stereo not given) | inconclusive: -74.8% |
| COc1ccc(NC(=O)CSc2nnc(-c3cccs3)n2-c2ccccc2)cc1 | active: -107% |
| CCc1cc2c(SCC(=O)c3ccc(C)cc3)ncnc2s1 | inconclusive: -79.6% |
| Cc1cccc2cc(C#N)c(SCC(=O)N3CC(=O)Nc4ccccc43)nc12 | inconclusive: -75.2% |

| SMILES | activity change |
| --- | --- |
| COc1cc(CC(NC(C)=O)C(=O)NC2CCN(c3nc(C)cc(C)c3C#N)CC2)cc(OC)c1 (stereo not given) | inactive |
| CCCCS/C(N)=N/N=C/c1ccccc1O | active: -111% |
| O=C1CSC(=S)N1N=Cc1c(O)ccc2ccccc12 | inactive |
| Cc1nn(-c2ccc(F)cc2)c2c1cc(C#N)c1nc3ccccc3n12 | inconclusive: -54% |
| CC(C)C(=O)N(c1ccc2oc(=O)sc2c1)S(=O)(=O)c1ccccc1 | inconclusive: -78.9% |
| CCn1cc2c(c1-c1cccc(C)c1)c(=O)n(C)c(=O)n2C | inconclusive: -73% |
| CN(C(=O)CN1C(=O)c2cccc(N)c2C1=O)C1CCCCC1 | inactive |
| c1nnc2c3c4c(sc3ncn12)CCC4 | inconclusive: -59.5% |
| Cc1ccc(-n2nc3cc(C)c(NC(=O)c4cccnc4)cc3n2)cc1 | inconclusive: -64% |
| C=CCSc1nc(-c2ccccc2)c(C#N)c(=O)[nH]1 | inconclusive: -59% |
| O=C(NC(=S)Nc1ccc(Br)cn1)c1cncc(Br)c1 | inconclusive: -63.1% |
| CCOC(=O)C1CCN(S(=O)(=O)c2cc(Cl)c(C)cc2OC)CC1 | active: -105% |
| COc1cccc(CN(CC(=O)NC2CCCC2)C(=O)c2csnn2)c1 | inactive |
| CCN(CC)c1nc(-c2nn[nH]n2)nc(N(CC)CC)n1 | inactive: -12.8% |
| CSc1nc(-c2ccccc2)nn1S(=O)(=O)c1ccc(Cl)cc1 | inconclusive: -70.9% |
| COc1ccc(C)cc1NC(=O)CSc1nnc(COc2ccc(Cl)cc2)n1Cc1ccco1 | inconclusive: -65% |
| CC(=O)c1cc(-c2ccc(F)cc2)n(CC(=O)NCc2cccs2)c1C | inconclusive: -62.3% |
| O=C(Nc1ccc(/C=C/c2nc3ccccc3o2)cc1)c1c(F)cccc1F | inconclusive: -50% |
| CCOC(=O)CC(=O)c1cc(OC)c(OC)c(OC)c1 | active: -106% |
| Cc1nn(Cc2ccc(F)cc2)c(C)c1NC(=O)c1noc2c1CCCCC2 | inconclusive: -72.4% |

| SMILES | activity change |
| --- | --- |
| Fc1ccccc1CN1CCCCCCC1 | active: -104% |
| O=C(CCCCCn1c(=S)[nH]c2cc3c(cc2c1=O)OCO3)N1CCN(C(=O)c2ccco2)CC1 | inconclusive: -67.9% |
| C=CCn1c(-c2ccc(C)cc2)nc2ccccc21 | inconclusive: -77.5% |
| COc1ccc(S(=O)(=O)N(CC(=O)Nc2cccnc2)c2ccccc2OC)cc1 | inconclusive: -50.5% |
| CCNC(=O)NC(=O)C(C)Sc1nc2cc(C(=O)OC)ccc2c(=O)n1-c1ccccc1 (stereo not given) | active: -122% |
| CCCCn1c(N)c(-c2nc3ccccc3s2)c2c([N+](=O)[O-])nn(C)c(=O)c21 | inconclusive: -58.4% |
| Cc1ccc(C2=CC(C)(c3ccc(C)cc3)Nc3nc(C(F)(F)F)nn32)cc1 (stereo not given) | inactive |
| COc1ccc(N2CCN(c3cc(C)c4ccc(C)cc4n3)CC2)cc1 | inactive |
| COc1ccc(-c2csc(C3=C(O)CN(Cc4ccc(Cl)cc4)C3=N)n2)cc1OC | inconclusive: -63.8% |
| COc1ccc(C)cc1N(C)C(=O)c1coc(=O)c2ccccc12 | inconclusive: -78.1% |
| Cc1cnc(C(=O)Nc2ccc(N3CCOCC3)cc2)cn1 | inconclusive: -62.1% |
| CCCC1CCc2c(sc(NC(=O)OCC)c2C#N)C1 (stereo not given) | inconclusive: -64% |
| CC(C)(C)C(=O)/C=C(\N)c1ccncc1 | active: -101% |
| CNc1nc(-c2ccccc2)nc(-c2ccccc2)c1C#N | inconclusive: -58.2% |
| CCN(CC)c1ccc(NC(=O)c2ccc(Br)o2)c(C)c1 | inconclusive: -71.4% |
| O=C(c1ccccc1)c1ccc2nc(-c3ccc(NC(=O)c4ccccc4F)cc3)[nH]c2c1 | inconclusive: -51.4% |
| O=C(N/N=C/c1cccnc1)c1ccc([N+](=O)[O-])cc1Cl | active: -82.5% |
| CCC(C)(C)n1nnnc1C(c1cc(OC)c(OC)c(OC)c1)N1CCN(c2ccccc2)CC1 (stereo not given) | inconclusive: -72.2% |
| CCOC(=O)Nc1ccc2c(c1)N(C(=O)CCN1CCN(CCO)CC1)c1ccccc1S2 | active: -124% |
| CCOC(=O)C1(C)CCCN1C(=O)c1ccc(OC)cc1 (stereo not given) | inactive |

Some of these compounds in order of SMILES length, low to high.

| SMILES | activity change |
| --- | --- |
| C=CCn1c(-c2ccc(C)cc2)nc2ccccc21 | inconclusive: -77.5% |
| CCOC(=O)C1(C)CCCN1C(=O)c1ccc(OC)cc1 (stereo not given) | inactive |
| CCN(CC)c1ccc(NC(=O)c2ccc(Br)o2)c(C)c1 | inconclusive: -71.4% |
| COc1ccc(C)cc1N(C)C(=O)c1coc(=O)c2ccccc12 | inconclusive: -78.1% |
| CCCCn1c(N)c(-c2nc3ccccc3s2)c2c([N+](=O)[O-])nn(C)c(=O)c21 | inconclusive: -58.4% |
